# Structures can show the parent of a compound that is named as a salt. Where two headings read alike, the source gives them in different places. Screen size: about 3,300 compounds; about 60 (2%) showed an effect of 50% or more. This is one part of the list. Peptide text beside a SMILES is read from it.
# System: HCoV-OC43
# Set-up: species or system RD; HTS, protection from HCoV-OC43 induced cell death, luminescent cell viability (CellCounting-Lite 2.0), inhibition rate
# Details: 24 h post infection, 1 h compound pre-incubation, 10 µM, inhibitor
SMILES,OC43 Inhibition rate [%],"OC43 Inhibition rate (OC43 Inhibition rate, 24 h) [%]"
CCC/C=C1\OC(=O)C2=C1CCC=C2 [(Z)-Ligustilide],-0.4,
O=C(O)/C=C\c1ccc2occc2c1O[C@@H]1O[C@H](CO)[C@@H](O)[C@H](O)[C@H]1O [Isopsoralenoside],-2.6,
C=C1C[C@@]23CC[C@H]4[C@@](C)(CCC[C@@]4(C)C(=O)O[C@@H]4O[C@H](CO)[C@@H](O)[C@H](O)[C@H]4O)[C@@H]2CC[C@]1(O[C@@H]1O[C@H](CO)[C@@H](O)[C@H](O)[C@H]1O[C@@H]1O[C@H](CO)[C@@H](O)[C@H](O[C@@H]2O[C@H](CO)[C@@H](O)[C@H](O)[C@H]2O)[C@H]1O)C3 [Rebaudioside A],-1.5,
O=C(O)CCC(=O)O [Succinic acid],,3.7
Cn1cncc1CCN [3-Methylhistamine (dihydrochloride)],2.6,
O=C1Cc2ccccc2N1 [Oxindole],1.1,
CCCCCC/C=C\CCCCCCCc1cccc(O)c1C(=O)O [Ginkgolic Acid],-1.9,
N=C(N)N [Guanidine (hydrochloride)],-7.2,
COc1cc([C@H]2c3cc(O)c(OC)cc3C[C@@H](CO)[C@@H]2CO)ccc1O [(+)-Isolariciresinol],0.3,
NC(C(=O)O)C(=O)O [Aminomalonic acid],-6,
C[C@@H]1CC[C@]2(C(=O)O)CC[C@]3(C)C(=CC[C@@H]4[C@@]5(C)CC[C@H](O)C(C)(C)[C@@H]5CC[C@]43C)[C@@H]2[C@]1(C)O [Pomolic acid],-2.9,
CC(C)c1cc2c(c(O)c1O)[C@@]13CCCC(C)(C)[C@@H]1[C@H](OC3=O)[C@H]2O [Rosmanol],0.5,
Cc1ncc([N+](=O)[O-])n1CC(O)CCl (centres unmarked) [Ornidazole],18.4,
COc1cc(/C=C/C(=O)N2CCC=CC2=O)cc(OC)c1OC [Piperlongumine],-0.1,
C/C=C(/C)C(=O)O[C@@H]1[C@H](OC(=O)CC(C)C)c2c(ccc3ccc(=O)oc23)OC1(C)C [Praeruptorin C],0,
COc1ccc(-c2coc3cc(O)c(OC)c(O)c3c2=O)cc1 [Irisolidone],0.3,
"O=C(O)CCc1ccc(O)cc1O [3-(2,4-Dihydroxyphenyl)propanoic acid]",-0.3,
O=C(O)c1ccc2c(c1)C(=O)c1ccccc1C2=O [Anthraquinone-2-carboxylic acid],0.2,
CC(=O)O[C@@H]1C[C@@]23C[C@@]24CC[C@H](O[C@@H]2OC[C@@H](O)[C@H](O)[C@H]2O)C(C)(C)[C@@H]4CC[C@H]3[C@]2(C)C[C@@H]3O[C@]4(C[C@@H](C)[C@@H]3[C@@]12C)OC[C@@]1(C)O[C@@H]41 [26-Deoxyactein],0.8,
CC(=O)[C@@]1(O)CC[C@H]2[C@@H]3CC=C4CC(O)CC[C@]4(C)[C@H]3CC[C@@]21C (some centres unmarked) [17a-Hydroxypregnenolone],1.3,
C[C@H]1[C@H](C)CC[C@]2(C(=O)O)CC[C@]3(C)C(=CC[C@@H]4[C@@]5(C)CCC(=O)C(C)(C)[C@@H]5CC[C@]43C)[C@H]12 [Ursonic acid],-1.5,

# Shown with bars between the fields: entries from further up
SMILES | OC43 Inhibition rate [%] | OC43 Inhibition rate (OC43 Inhibition rate, 24 h) [%]
O=C(O)c1ccc2c(c1)C(=O)c1ccccc1C2=O [Anthraquinone-2-carboxylic acid] | 0.2 | 
CC(=O)O[C@@H]1C[C@@]23C[C@@]24CC[C@H](O[C@@H]2OC[C@@H](O)[C@H](O)[C@H]2O)C(C)(C)[C@@H]4CC[C@H]3[C@]2(C)C[C@@H]3O[C@]4(C[C@@H](C)[C@@H]3[C@@]12C)OC[C@@]1(C)O[C@@H]41 [26-Deoxyactein] | 0.8 | 
CC(=O)[C@@]1(O)CC[C@H]2[C@@H]3CC=C4CC(O)CC[C@]4(C)[C@H]3CC[C@@]21C (some centres unmarked) [17a-Hydroxypregnenolone] | 1.3 | 

# More compounds

SMILES,OC43 Inhibition rate [%],"OC43 Inhibition rate (OC43 Inhibition rate, 24 h) [%]"
CCOC(=O)CC(C)O (centres unmarked) [Ethyl 3-hydroxybutyrate],0.8,
"CC(=O)CC(=O)CCC(=O)O [4,6-Dioxoheptanoic acid]",-0.3,
Oc1cc(O)c2cc(O)c(-c3cc(O)c(O)c(O)c3)[o+]c2c1 [Delphinidin (chloride)],-1.7,
C[C@@H]1CC[C@]2(C(=O)O[C@@H]3O[C@H](CO)[C@@H](O)[C@H](O)[C@H]3O)CC[C@]3(C)C(=CC[C@@H]4[C@@]5(C)CC[C@H](O)[C@](C)(C(=O)O)[C@@H]5CC[C@]43C)[C@@H]2[C@]1(C)O [Ilexsaponin A],-0.6,
OC[C@H]1O[C@@H]2O[C@H]3[C@H](O)[C@@H](O)[C@@H](O[C@H]4[C@H](O)[C@@H](O)[C@@H](O[C@H]5[C@H](O)[C@@H](O)[C@@H](O[C@H]6[C@H](O)[C@@H](O)[C@@H](O[C@H]7[C@H](O)[C@@H](O)[C@@H](O[C@H]1[C@H](O)[C@H]2O)O[C@@H]7CO)O[C@@H]6CO)O[C@@H]5CO)O[C@@H]4CO)O[C@@H]3CO [α-Cyclodextrin],-0.9,
COc1ccc2ccc(=O)oc2c1 [Herniarin],-2.4,
CCCCCCC[C@H](O)CC(=O)CCc1ccc(O)c(OC)c1 [8-Gingerol],2.5,
CC[C@@]1(O)C(=O)OCc2c1cc1n(c2=O)Cc2cc3c([N+](=O)[O-])cccc3nc2-1 [Rubitecan],3,
O=c1oc2cc(O)ccc2c2cc(O)c(O)cc12 [Urolithin C],4.7,
CCCCOC(=O)/C=C\C(=O)OCCCC [Dibutyl maleate],0.3,
COc1ccc(CC2c3cc(OC)c(OC)cc3CCN2C)cc1OC (racemic) [DL-Laudanosine],0.1,
COc1cc2c(c(OC)c1OC)-c1c3cc4c(c1OC[C@@H](C)[C@@](C)(O)C(=O)O[C@@H]2[C@@](C)(O)[C@@H](C)C3)OCO4 [Gomisin D],0.8,
O=c1c(O)c(-c2ccc(O)c(O)c2)oc2cc(O)ccc12 [Fisetin],0.5,
CC1(C)CC[C@]2(C(=O)O)[C@H](O)C[C@]3(C)C(=CC[C@@H]4[C@@]5(C)C[C@H](O)[C@H](O)C(CO)(CO)[C@@H]5CC[C@]43C)[C@@H]2C1 [Platicodigenin],-0.7,
CCCCCC(C)O (centres unmarked) [2-Heptanol],-0.1,
C=C1C=CC(C(C)C)CC1 (stereo not drawn) [β-Phellandrene],-0.5,
COc1cc2c3cc1Oc1c(OC)c(OC)cc4c1[C@@H](Cc1ccc(O)c(c1)Oc1ccc(cc1)C[C@@H]3N(C)CC2)N(C)CC4 [Berbamine],0,
C[C@H]1COC2=C1C(=O)C(=O)c1c2ccc2c1CCCC2(C)C [Cryptotanshinone],-0.3,
OC1C[C@H]2CC[C@@H](C1)N2 (some centres unmarked) [Nortropine],-2,
COc1ccc(-c2coc3cc(O[C@@H]4O[C@H](CO)[C@@H](O)[C@H](O)[C@H]4O)ccc3c2=O)cc1 [Ononin],4.1,
COc1cc2c(cc1O)CC[n+]1cc3c4c(ccc3cc1-2)OCO4 [Groenlandicine],-0.3,

SMILES,OC43 Inhibition rate [%],"OC43 Inhibition rate (OC43 Inhibition rate, 24 h) [%]"
O=C1N[C@@H](Cc2c[nH]c3ccccc23)C(=O)N2CCC[C@@H]12 [Brevianamide F],-0.4,
CSC[C@H](N)C(=O)O [S-Methyl-L-cysteine],3.9,
O=C(O)[C@@H](O)Cc1ccccc1 [(S)-2-Hydroxy-3-phenylpropanoic acid],-0.3,
N[C@@H](CCSC[C@H](N)C(=O)O)C(=O)O [L-Cystathionine],-0.3,
COc1cc(O)cc(CCc2cccc(O)c2)c1 [Batatasin III],2.8,
CCCCCCCC/C=C\CCCCCCCC(=O)O[C@H]1CC[C@@]2(C)C(=CC[C@H]3[C@@H]4CC[C@H]([C@H](C)CCCC(C)C)[C@@]4(C)CC[C@@H]32)C1 [Cholesteryl oleate],-0.3,
CC(C)C[C@H](N)C(=O)N[C@@H](Cc1ccccc1)C(=O)O [Leucyl-phenylalanine] (H-Leu-Phe-OH),-7.7,
C[C@@H]1CC[C@]2(C(=O)O)CC[C@]3(C)C(=CC[C@@H]4[C@@]5(C)CC[C@H](O)[C@@](C)(CO)[C@@H]5CC[C@]43C)[C@@H]2[C@]1(C)O [Rotundic acid],-1.3,
Cn1c[n+]([C@@H]2O[C@H](CO)[C@@H](O)[C@H]2O)c2nc(N)[nH]c(=O)c21 [7-Methylguanosine],-2.1,
CC(=O)CCC(=O)O [Levulinic acid],-0.2,
COc1cc(O)c(CC=C(C)C)c2c1C(=O)CC(c1ccc(O)cc1)O2 (centres unmarked) [Isoxanthohumol],30.2,
C[C@@H]1O[C@@H](O[C@H]2[C@H](Oc3cc(O)c4c(=O)cc(-c5ccc(O)cc5)oc4c3)O[C@H](CO[C@@H]3O[C@H](CO)[C@@H](O)[C@H](O)[C@H]3O)[C@@H](O)[C@@H]2O)[C@H](O)[C@H](O)[C@H]1O [Apigenin-7-O-(2G-rhamnosyl)gentiobioside],-0.3,
CC(=O)O[C@@H]1CC[C@@]2(C)[C@@H](CC[C@]3(C)[C@@H]2[C@H](O)C=C2[C@@H]4[C@@H](C)[C@H](C)CC[C@]4(C)CC[C@]23C)[C@@]1(C)C(=O)O [3-O-Acetyl-11-hydroxy-beta-boswellic acid],15.2,
O=C(O)CCCCCCCCCCCO [12-Hydroxydodecanoic acid],-1,
CC(O)CC(=O)O (centres unmarked) [3-Hydroxybutyric acid],9.7,
CCCCC/C=C/C(=O)O [(E)-Oct-2-enoic acid],3.7,
CC(=O)O[C@@H](C[C@@H](C)C1=C2C[C@H](O)[C@H]3[C@@]4(C)CCC(=O)C(C)(C)[C@@H]4CC[C@]3(C)[C@@]2(C)CC1=O)[C@H]1OC1(C)C [Alisol C 23-acetate],4,
O=C1C[C@@](O)(C(=O)O)[C@@H](C(=O)O)O1 [(-)-Hydroxycitric acid lactone],-0.6,
COc1cc2ccc(=O)oc2c(O[C@@H]2O[C@H](CO)[C@@H](O)[C@H](O)[C@H]2O)c1O [Fraxin],3.6,
CC(C)(O[C@@H]1O[C@H](CO)[C@@H](O)[C@H](O)[C@H]1O)[C@H]1Cc2cc3ccc(=O)oc3cc2O1 [Nodakenin],0.2,
